Results are given in words; binding and its absence hold for the method and conditions named. In cells and extracts the contact can be indirect. Some entries that bind do so weakly or less than the wild type.
Biological target: IP3R1, endogenous in HepG2 cells (human (endogenous in HepG2)) (UniProt Q14643)
Experiment: co-IP; endogenous proteins of HepG2 cells; IP with anti-IP3R1 antibody, blot with anti-RCN1 or anti-IP3R1

Sequences of proteins named here, by UniProt entry; tags and fusion partners are left off.
UniProt Q14643: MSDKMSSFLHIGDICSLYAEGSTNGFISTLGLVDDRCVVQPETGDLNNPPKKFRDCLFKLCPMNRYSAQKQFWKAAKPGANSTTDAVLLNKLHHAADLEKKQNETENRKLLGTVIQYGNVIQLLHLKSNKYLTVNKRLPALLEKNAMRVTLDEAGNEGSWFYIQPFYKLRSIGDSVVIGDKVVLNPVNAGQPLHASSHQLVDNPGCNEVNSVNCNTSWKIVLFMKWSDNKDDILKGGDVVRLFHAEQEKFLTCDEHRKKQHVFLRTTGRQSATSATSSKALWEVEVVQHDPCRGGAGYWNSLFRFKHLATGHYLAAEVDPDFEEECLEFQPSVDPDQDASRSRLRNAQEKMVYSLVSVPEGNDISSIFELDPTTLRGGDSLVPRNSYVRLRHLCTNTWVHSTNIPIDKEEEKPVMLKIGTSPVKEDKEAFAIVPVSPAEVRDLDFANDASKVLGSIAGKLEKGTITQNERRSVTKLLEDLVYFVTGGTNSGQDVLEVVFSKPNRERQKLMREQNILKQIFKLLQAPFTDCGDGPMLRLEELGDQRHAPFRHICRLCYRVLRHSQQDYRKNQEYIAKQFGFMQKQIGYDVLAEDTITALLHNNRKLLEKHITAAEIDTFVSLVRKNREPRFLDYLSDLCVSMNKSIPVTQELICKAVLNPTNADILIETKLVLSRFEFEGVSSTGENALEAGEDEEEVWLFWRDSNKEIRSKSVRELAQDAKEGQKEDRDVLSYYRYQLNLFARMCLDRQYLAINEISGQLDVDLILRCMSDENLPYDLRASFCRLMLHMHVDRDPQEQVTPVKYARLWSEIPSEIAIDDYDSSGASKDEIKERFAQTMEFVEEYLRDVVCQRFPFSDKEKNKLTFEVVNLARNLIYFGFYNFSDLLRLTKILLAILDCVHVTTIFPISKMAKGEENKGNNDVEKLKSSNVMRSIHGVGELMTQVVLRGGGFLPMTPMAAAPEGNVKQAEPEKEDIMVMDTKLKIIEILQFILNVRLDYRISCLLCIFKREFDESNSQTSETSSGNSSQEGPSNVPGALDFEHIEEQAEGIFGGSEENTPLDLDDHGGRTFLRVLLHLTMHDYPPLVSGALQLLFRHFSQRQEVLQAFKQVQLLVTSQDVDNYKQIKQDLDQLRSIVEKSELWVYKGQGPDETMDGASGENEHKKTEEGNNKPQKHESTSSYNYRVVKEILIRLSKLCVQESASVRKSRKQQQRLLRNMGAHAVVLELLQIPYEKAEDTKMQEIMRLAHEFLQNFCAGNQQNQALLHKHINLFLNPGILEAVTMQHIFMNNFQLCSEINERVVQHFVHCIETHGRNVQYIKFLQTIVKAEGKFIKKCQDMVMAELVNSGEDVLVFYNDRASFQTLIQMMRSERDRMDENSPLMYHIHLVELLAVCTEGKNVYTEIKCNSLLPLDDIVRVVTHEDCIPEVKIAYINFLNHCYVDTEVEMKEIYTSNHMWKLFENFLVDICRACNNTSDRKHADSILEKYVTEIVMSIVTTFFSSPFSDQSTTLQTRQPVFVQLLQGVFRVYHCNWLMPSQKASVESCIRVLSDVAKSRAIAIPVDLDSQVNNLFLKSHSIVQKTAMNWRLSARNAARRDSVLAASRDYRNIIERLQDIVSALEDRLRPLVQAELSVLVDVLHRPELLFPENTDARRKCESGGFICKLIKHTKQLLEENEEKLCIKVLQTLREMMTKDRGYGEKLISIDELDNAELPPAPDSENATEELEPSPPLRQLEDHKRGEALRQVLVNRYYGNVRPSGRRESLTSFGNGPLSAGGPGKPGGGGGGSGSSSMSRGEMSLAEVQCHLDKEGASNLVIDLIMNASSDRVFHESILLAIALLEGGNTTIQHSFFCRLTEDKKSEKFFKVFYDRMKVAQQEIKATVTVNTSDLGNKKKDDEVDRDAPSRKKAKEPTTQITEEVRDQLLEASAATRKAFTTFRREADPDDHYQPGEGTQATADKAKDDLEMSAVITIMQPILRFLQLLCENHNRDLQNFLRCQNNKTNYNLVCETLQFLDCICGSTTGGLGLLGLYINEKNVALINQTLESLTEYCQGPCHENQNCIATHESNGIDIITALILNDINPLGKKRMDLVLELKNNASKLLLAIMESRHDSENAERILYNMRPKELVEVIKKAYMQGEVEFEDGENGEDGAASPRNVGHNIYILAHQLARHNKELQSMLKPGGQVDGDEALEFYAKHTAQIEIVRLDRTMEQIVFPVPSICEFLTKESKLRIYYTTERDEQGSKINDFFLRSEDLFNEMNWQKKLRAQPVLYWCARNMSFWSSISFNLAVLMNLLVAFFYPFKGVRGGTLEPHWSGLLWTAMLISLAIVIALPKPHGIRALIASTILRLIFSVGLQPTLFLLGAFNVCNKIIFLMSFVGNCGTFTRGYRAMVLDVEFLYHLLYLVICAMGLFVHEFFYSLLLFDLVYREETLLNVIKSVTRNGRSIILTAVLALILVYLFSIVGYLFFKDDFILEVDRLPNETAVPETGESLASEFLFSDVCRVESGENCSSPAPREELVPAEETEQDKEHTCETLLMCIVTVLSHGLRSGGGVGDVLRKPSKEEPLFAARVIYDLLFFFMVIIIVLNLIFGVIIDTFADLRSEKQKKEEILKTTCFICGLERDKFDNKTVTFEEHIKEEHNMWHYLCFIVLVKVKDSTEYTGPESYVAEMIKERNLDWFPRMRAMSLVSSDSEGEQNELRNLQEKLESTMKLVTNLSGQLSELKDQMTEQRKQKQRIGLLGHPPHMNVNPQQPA

binding: binds
B1: RCN1, endogenous in HepG2 cells (protein, UniProt Q15293 30-331)
chain: KPTVRKERVVRPDSELGERPPEDNQSFQYDHEAFLGKEDSKTFDQLTPDESKERLGKIVDRIDNDGDGFVTTEELKTWIKRVQKRYIFDNVAKVWKDYDRDKDDKISWEEYKQATYGYYLGNPAEFHDSSDHHTFKKMLPRDERRFKAADLNGDLTATREEFTAFLHPEEFEHMKEIVVLETLEDIDKNGDGFVDQDEYIADMFSHEENGPEPDWVLSEREQFNEFRDLNKDGKLDKDEIRHWILPQDYDHAQAEARHLVYESDKNKDEKLTKEEILENWNMFVGSQATNYGEDLTKNHDEL
